This passage reports binding results from article PMC13292255.

Protein sequences, listed by entry. Tags and fused reporters are not part of them. Residues count along the entry.
UniProt P55058, residues 18-493: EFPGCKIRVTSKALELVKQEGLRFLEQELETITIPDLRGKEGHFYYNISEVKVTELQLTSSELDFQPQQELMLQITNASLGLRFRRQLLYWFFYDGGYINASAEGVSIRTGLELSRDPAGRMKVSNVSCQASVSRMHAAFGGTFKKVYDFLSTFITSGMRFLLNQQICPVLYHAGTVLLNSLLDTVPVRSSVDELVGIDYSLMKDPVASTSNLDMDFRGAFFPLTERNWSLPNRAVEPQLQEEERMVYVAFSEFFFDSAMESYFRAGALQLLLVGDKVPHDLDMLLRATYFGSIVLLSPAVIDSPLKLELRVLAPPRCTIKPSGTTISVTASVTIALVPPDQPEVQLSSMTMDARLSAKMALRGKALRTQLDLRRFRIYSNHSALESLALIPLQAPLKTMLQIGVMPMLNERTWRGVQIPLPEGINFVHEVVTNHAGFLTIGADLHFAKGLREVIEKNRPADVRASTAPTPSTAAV
UniProt O14965: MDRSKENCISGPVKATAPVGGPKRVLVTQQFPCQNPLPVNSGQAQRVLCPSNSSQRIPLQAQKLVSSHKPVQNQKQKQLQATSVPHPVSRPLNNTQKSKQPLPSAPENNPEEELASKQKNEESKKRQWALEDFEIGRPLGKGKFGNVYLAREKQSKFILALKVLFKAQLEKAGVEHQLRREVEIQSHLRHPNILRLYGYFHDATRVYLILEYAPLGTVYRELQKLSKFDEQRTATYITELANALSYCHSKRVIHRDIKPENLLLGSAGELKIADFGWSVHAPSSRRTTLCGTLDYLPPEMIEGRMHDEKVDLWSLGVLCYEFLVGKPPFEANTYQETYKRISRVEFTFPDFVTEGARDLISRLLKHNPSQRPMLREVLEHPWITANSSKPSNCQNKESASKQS

These are yes or no findings as the source states them, for the method shown. Binding seen in cells or lysates may run through a third protein. Here binding means that the protein was enriched with, or labelled near, the bait; the list need not be complete.

This experiment has as its target Phospholipid transfer protein (PLTP) (human (endogenous in HCC cell lines)) (UniProt P55058). The experiment can be described thus: affinity purification with mass spectrometry; proteins immunoprecipitated with a PLTP antibody, analysed by LC-MS/MS (Figure 4E, 4F).

Take “Aurora kinase A (AURKA) (from UniProt O14965 1-403) (enzyme)”: the binding result is “binds”.
